Results published in publication PMC12796488.
These are yes or no findings as the source states them, for the method shown. Some results given as binding are weak or reduced against the parent protein; the word gives no strength.

By UniProt entry, the sequences of proteins in these tests, tags left out.
UniProt Q9HT15: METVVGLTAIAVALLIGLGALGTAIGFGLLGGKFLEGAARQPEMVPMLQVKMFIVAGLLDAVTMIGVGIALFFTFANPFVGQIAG
UniProt Q9HT18: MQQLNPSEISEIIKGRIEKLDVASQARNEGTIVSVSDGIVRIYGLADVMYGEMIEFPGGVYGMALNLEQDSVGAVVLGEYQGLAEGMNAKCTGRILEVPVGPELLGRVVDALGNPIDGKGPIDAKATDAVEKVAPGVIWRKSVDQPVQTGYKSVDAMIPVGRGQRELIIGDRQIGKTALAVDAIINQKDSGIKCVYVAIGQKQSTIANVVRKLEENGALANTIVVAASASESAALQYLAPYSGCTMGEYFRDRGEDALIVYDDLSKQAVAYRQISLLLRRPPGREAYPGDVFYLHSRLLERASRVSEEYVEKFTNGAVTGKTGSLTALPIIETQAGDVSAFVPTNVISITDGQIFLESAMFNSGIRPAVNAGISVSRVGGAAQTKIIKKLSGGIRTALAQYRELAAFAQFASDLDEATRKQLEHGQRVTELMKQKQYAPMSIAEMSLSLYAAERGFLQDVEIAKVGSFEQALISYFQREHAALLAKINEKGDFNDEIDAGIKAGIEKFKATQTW
UniProt Q9HT20: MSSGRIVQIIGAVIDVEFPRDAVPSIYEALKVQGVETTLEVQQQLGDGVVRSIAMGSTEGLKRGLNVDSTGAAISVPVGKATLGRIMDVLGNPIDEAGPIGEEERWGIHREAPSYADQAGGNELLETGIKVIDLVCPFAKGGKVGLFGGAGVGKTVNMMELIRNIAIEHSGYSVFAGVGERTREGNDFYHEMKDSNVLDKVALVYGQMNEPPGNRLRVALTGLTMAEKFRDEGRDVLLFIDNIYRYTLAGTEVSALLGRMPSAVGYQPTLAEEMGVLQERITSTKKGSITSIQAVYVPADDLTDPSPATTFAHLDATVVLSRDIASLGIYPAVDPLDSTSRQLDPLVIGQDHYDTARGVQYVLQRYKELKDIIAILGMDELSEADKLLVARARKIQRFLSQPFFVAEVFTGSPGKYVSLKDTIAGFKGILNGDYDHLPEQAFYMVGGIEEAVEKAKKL

Tests used:
[1] = target: P. aeruginosa ATP synthase subunit c (Pseudomonas aeruginosa) (UniProt Q9HT15); test: cryo-EM structure; purified F1Fo complex in digitonin; 10 mM MgADP and 230 uM compound #5 added, 1 h on ice before freezing; maps at 2.0-3.0 Å; both purified
[2] = target: P. aeruginosa ATP synthase subunit α (Pseudomonas aeruginosa) (UniProt Q9HT18); test: as above
[3] = target: P. aeruginosa ATP synthase subunit β (Pseudomonas aeruginosa) (UniProt Q9HT20); test: as above
[4] = target: T1, P. aeruginosa ATP synthase subunit γ (Pseudomonas aeruginosa) (UniProt Q9HT19); test: as above
T1 sequence: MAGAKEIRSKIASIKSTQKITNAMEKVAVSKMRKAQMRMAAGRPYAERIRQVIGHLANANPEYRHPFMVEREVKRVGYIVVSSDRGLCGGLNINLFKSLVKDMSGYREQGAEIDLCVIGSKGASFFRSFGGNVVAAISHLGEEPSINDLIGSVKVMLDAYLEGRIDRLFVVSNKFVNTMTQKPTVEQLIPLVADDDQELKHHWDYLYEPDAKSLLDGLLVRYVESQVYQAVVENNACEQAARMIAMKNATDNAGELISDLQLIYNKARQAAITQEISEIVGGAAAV

[5] = target: P. aeruginosa ATP synthase subunit α (Pseudomonas aeruginosa) (UniProt Q9HT18); test: cryo-EM structure; purified F1Fo complex in digitonin; 10 mM MgATP, 22 °C for 30 s before freezing; State 2 maps at ~3.5 Å; classes with εCTD "up" and "down"; both purified
[6] = target: P. aeruginosa ATP synthase subunit β (Pseudomonas aeruginosa) (UniProt Q9HT20); test: as above
[7] = target: T1, P. aeruginosa ATP synthase subunit γ (Pseudomonas aeruginosa); test: as above

Measured: binding

B1: P. aeruginosa ATP synthase subunit ε (protein, UniProt Q9HT21 1-141)
chain: MAITVHCDIVSAEAEIFSGLVEMVIAHGALGDLGIAPGHAPLITDLKPGPIRLVKQGGEQEVYYISGGFLEVQPNMVKVLADTVVRAGDLDEAAAQEALKAAEKALQGKGAEFDYSAAAARLAEAAAQLRTVQQLRKKFGG
binds: all assays above
